# Reference: PMC7655986
# Results are given in words; binding and its absence hold for the method and conditions named. For some of these results: In cells and extracts the contact can be indirect. Some entries that bind do so weakly or less than the wild type. For some of these results: Where a sequence is shown, tags or fusion partners need not be part of it.
# B1: desmoglein 3 (Dsg3), endogenous in human keratinocytes (HaCaT) (protein, UniProt P32926 50-999)
# chain: EWVKFAKPCREGEDNSKRNPIAKITSDYQATQKITYRISGVGIDQPPFGIFVVDKNTGDINITAIVDREETPSFLITCRALNAQGLDVEKPLILTVKILDINDNPPVFSQQIFMGEIEENSASNSLVMILNATDADEPNHLNSKIAFKIVSQEPAGTPMFLLSRNTGEVRTLTNSLDREQASSYRLVVSGADKDGEGLSTQCECNIKVKDVNDNFPMFRDSQYSARIEENILSSELLRFQVTDLDEEYTDNWLAVYFFTSGNEGNWFEIQTDPRTNEGILKVVKALDYEQLQSVKLSIAVKNKAEFHQSVISRYRVQSTPVTIQVINVREGIAFRPASKTFTVQKGISSKKLVDYILGTYQAIDEDTNKAASNVKYVMGRNDGGYLMIDSKTAEIKFVKNMNRDSTFIVNKTITAEVLAIDEYTGKTSTGTVYVRVPDFNDNCPTAVLEKDAVCSSSPSVVVSARTLNNRYTGPYTFALEDQPVKLPAVWSITTLNATSALLRAQEQIPPGVYHISLVLTDSQNNRCEMPRSLTLEVCQCDNRGICGTSYPTTSPGTRYGRPHSGRLGPAAIGLLLLGLLLLLLAPLLLLTCDCGAGSTGGVTGGFIPVPDGSEGTIHQWGIEGAHPEDKEITNICVPPVTANGADFMESSEVCTNTYARGTAVEGTSGMEMTTKLGAATESGGAAGFATGTVSGAASGFGAATGVGICSSGQSGTMRTRHSTGGTNKDYADGAISMNFLDSYFSQKAFACAEEDDGQEANDCLLIYDNEGADATGSPVGSVGCCSFIADDLDDSFLDSLGPKFKKLAEISLGVDGEGKEVQPPSKDSGYGIESCGHPIEVQQTGFVKCQTLSGSQGASALSTSGSVQPAVSIPDPLQHGNYLVTETYSASGSLVQPSTAGFDPLLTQNVIVTERVICPISSVPGNLAGPTQLRGSHTMLCTEDPCSRLI
# B2: recombinant Fc-construct of the Dsg3 extracellular domain (Fc fusion, UniProt P32926 50-615)
# chain: EWVKFAKPCREGEDNSKRNPIAKITSDYQATQKITYRISGVGIDQPPFGIFVVDKNTGDINITAIVDREETPSFLITCRALNAQGLDVEKPLILTVKILDINDNPPVFSQQIFMGEIEENSASNSLVMILNATDADEPNHLNSKIAFKIVSQEPAGTPMFLLSRNTGEVRTLTNSLDREQASSYRLVVSGADKDGEGLSTQCECNIKVKDVNDNFPMFRDSQYSARIEENILSSELLRFQVTDLDEEYTDNWLAVYFFTSGNEGNWFEIQTDPRTNEGILKVVKALDYEQLQSVKLSIAVKNKAEFHQSVISRYRVQSTPVTIQVINVREGIAFRPASKTFTVQKGISSKKLVDYILGTYQAIDEDTNKAASNVKYVMGRNDGGYLMIDSKTAEIKFVKNMNRDSTFIVNKTITAEVLAIDEYTGKTSTGTVYVRVPDFNDNCPTAVLEKDAVCSSSPSVVVSARTLNNRYTGPYTFALEDQPVKLPAVWSITTLNATSALLRAQEQIPPGVYHISLVLTDSQNNRCEMPRSLTLEVCQCDNRGICGTSYPTTSPGTRYGRPHSGR
# B3: recombinant Fc-construct of the Dsg2 extracellular domain, Q14126 50-609 (Fc fusion)
# chain: AWITAPVALREGEDLSKKNPIAKIHSDLAEERGLKITYKYTGKGITEPPFGIFVFNKDTGELNVTSILDREETPFFLLTGYALDARGNNVEKPLELRIKVLDINDNEPVFTQDVFVGSVEELSAAHTLVMKINATDADEPNTLNSKISYRIVSLEPAYPPVFYLNKDTGEIYTTSVTLDREEHSSYTLTVEARDGNGEVTDKPVKQAQVQIRILDVNDNIPVVENKVLEGMVEENQVNVEVTRIKVFDADEIGSDNWLANFTFASGNEGGYFHIETDAQTNEGIVTLIKEVDYEEMKNLDFSVIVANKAAFHKSIRSKYKPTPIPIKVKVKNVKEGIHFKSSVISIYVSESMDRSSKGQIIGNFQAFDEDTGLPAHARYVKLEDRDNWISVDSVTSEIKLAKLPDFESRYVQNGTYTVKIVAISEDYPRKTITGTVLINVEDINDNCPTLIEPVQTICHDAEYVNVTAEDLDGHPNSGPFSFSVIDKPPGMAEKWKIARQESTSVLLQQSEKKLGRSEIQFLISDNQGFSCPEKQVLTLTVCECLHGSGCREAQHDSYVG
# Tests used:
# [1] = target: T1, recombinant Fc-construct of the Dsg3 extracellular domain (UniProt P32926); experiment: atomic force microscopy (cell-free, inhibition by antibodies); Dsg-Fc constructs on tip and mica; binding frequencies with and without (ctr) incubation for 1 h of AK23, PV3-IgG or a monoclonal inhibitory anti-Dsg2 antibody; both purified
# T1 sequence: B2 chain
# [2] = target: T2, desmoglein 3 (Dsg3), endogenous in human keratinocytes (HaCaT) (human (endogenous in HaCaT)) (UniProt P32926); experiment: co-IP; HaCaT lysates in RIPA buffer (50 mM Tris-HCl pH 8, 150 mM NaCl, 0.1% SDS, 1% NP-40, 1 mM EDTA); 1.5 µg polyclonal anti-Dsg3 or anti-Dsg2 antibody or rabbit ctr-IgG, 3 h at 4°C, A/G beads overnight; Western blot
# T2 sequence: B1 chain
# [3] = target: T2, desmoglein 3 (Dsg3), endogenous in human keratinocytes (HaCaT) (human (endogenous in HaCaT)); experiment: cross-linking + co-IP; HaCaT cells treated with the membrane-impermeable crosslinker DTSSP before lysis and immunoprecipitation
# [4] = target: desmoglein 2 (Dsg2), endogenous in human keratinocytes (HaCaT) (human (endogenous in HaCaT)) (UniProt Q14126); experiment: co-IP; HaCaT lysates in RIPA buffer (50 mM Tris-HCl pH 8, 150 mM NaCl, 0.1% SDS, 1% NP-40, 1 mM EDTA); 1.5 µg polyclonal anti-Dsg3 or anti-Dsg2 antibody or rabbit ctr-IgG, 3 h at 4°C, A/G beads overnight; Western blot
# [5] = target: T1, recombinant Fc-construct of the Dsg3 extracellular domain; experiment: atomic force microscopy (cell-free single-molecule force measurements); Dsg-Fc constructs (0.15 mg/ml) linked by a PEG linker to the cantilever tip and to mica sheets; Force Mapping mode; binding frequency and unbinding force; pulling speeds from 1 to 20 µm/s and modified Bells equation for the bond lifetime; 5 mM EGTA for 1 h lowered the binding frequency; both purified
# [6] = target: T3, recombinant Fc-construct of the Dsg2 extracellular domain, Q14126; experiment: atomic force microscopy (cell-free, inhibition by antibodies); Dsg-Fc constructs on tip and mica; binding frequencies with and without (ctr) incubation for 1 h of AK23, PV3-IgG or a monoclonal inhibitory anti-Dsg2 antibody; both purified; settings: remark: other sources report otherwise
# T3 chain: B3 chain
molecule,measurement,setting,value
recombinant Fc-construct of the Dsg2 extracellular domain (from UniProt Q14126 50-609) (Fc fusion),binding,[1],binds
"desmoglein 2 (Dsg2), endogenous in human keratinocytes (HaCaT) (from UniProt Q14126 50-1118)",binding,[2],binds
same,binding,[3],binds
B1,binding,[4],binds
B2,binding,[5],binds
same,binding,[1],binds
B3,binding,[6],binds
